# Assay results reported in publication PMC3718739.
# By UniProt entry, the sequences of proteins in these tests, tags left out. Residues count along the entry.
# UniProt P02769, residues 25-607: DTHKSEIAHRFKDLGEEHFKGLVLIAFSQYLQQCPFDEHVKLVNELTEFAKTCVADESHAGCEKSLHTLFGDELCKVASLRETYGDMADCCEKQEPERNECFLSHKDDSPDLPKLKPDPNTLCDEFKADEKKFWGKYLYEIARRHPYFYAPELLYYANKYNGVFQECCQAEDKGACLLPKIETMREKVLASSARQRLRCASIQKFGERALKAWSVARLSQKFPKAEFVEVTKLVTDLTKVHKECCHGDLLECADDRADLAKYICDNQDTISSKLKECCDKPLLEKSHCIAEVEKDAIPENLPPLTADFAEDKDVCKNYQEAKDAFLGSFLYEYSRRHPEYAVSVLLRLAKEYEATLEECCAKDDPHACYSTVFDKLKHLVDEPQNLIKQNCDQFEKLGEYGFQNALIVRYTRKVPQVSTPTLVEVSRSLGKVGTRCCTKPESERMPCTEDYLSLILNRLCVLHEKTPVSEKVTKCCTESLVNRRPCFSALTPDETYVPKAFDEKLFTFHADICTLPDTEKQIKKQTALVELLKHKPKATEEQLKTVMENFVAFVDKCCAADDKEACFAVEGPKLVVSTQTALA
# UniProt P9WGM3: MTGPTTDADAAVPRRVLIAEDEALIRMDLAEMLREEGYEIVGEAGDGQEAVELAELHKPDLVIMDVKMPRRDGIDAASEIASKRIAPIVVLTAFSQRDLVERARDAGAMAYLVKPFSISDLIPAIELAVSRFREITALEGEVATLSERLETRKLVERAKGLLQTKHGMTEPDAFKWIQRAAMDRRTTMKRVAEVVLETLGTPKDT
# These are yes or no findings as the source states them, for the method shown.
# Biological target: BSA (bovine (from the name BSA)) (UniProt P02769)
# Assay: far-Western, overlay or dot blot; both purified
substance,measurement,value
GST-Rv1626 (from UniProt P9WGM3 1-205),binding,no binding (tested: 1 µg/ml)
